Measured values taken from PubChem BioAssay AID504847 (National Center for Advancing Translational Sciences (NCATS), 2011).
Where “and” joins values, the source holds several entries; their conditions need not be identical. Equal values may be shown once. Among all 400,000 compounds or so, about 3,700 (0.93%) were called active. Inconclusive results, whose numbers are uncertain, are shown with a selection of clear calls. The call rests on the fitted dose curve; in most records, active means well fitted inhibition curve with a large enough effect; inconclusive means small, poorly fitted or top-dose-only effect, or another doubt; inactive means no such curve, though single readings can be large or run the other way. Where the call is inconclusive, the potency comes from a doubtful curve fit.

By UniProt entry, the sequences of proteins in these tests, tags left out. Where a name states a change or a piece, a line headed by the entry shows the natural chain unless it says otherwise.
UniProt P11473: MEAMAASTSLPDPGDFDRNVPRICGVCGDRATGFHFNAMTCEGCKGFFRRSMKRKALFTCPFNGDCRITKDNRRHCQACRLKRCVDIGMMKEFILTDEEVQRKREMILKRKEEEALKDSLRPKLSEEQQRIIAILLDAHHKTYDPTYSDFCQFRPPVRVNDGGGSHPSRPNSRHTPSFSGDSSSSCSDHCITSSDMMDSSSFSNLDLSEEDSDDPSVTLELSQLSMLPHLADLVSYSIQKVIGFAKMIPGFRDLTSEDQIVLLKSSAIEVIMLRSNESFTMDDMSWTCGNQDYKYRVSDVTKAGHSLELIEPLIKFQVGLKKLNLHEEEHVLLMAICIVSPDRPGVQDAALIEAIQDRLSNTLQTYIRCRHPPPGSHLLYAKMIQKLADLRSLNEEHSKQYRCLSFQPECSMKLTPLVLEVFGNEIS

Each compound was assayed against Vitamin D3 receptor (Homo sapiens) (UniProt P11473) (assay: Inhibitors of the vitamin D receptor (VDR): qHTS). Conditions: VDR-SRC2-3 peptide fluorescence polarization, 2 h; max response, negative = inhibition: hits give low values.
Outline: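 FP read-out; VDR + SRC2-3 coactivator peptide; 23 nl compound by pintool; 2 h RT incubation; reagents held at 4 deg C, protected from light.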
On the % scale 0 is the no-effect control and ±100 the full control effect; potency means the concentration at half of the fitted maximal effect.

| Structure (SMILES) | max response, negative = inhibition | Potency |
| --- | --- | --- |
| CCCCN1CCC[C@H]1CNC(=O)c1cc(C#N)c2ccccc2c1OC | inactive: 4.59% | – |
| CC(=O)Nc1ccc(NS(=O)(=O)c2cc(Br)cc3c2N(C(=O)C2CC2)CC3)cc1 | – | inconclusive: 100 µM [inhibitor, single point] |
| Cc1ccc(C(=O)CSc2ccccn2)cc1 | – | active: 79.4 µM |
| COc1cc(C(C)=O)ccc1OCc1cc(C(=O)N(C)CCC2CCCCO2)no1 (stereo unspecified) | inactive: 13.8% | – |
| Cc1ccc(/C=N/Nc2nc(C(C)(C)C)cs2)o1 | – | inconclusive: 15.8 µM [inhibitor, partial curve, poor fit] |
| CN(C)c1ccc(N/C=C/C(=O)c2ccco2)cc1 | – | active: 89.1 µM |
| COc1ccc(-n2nnnc2SCC(=O)Nc2cc(OC)c([N+](=O)[O-])cc2C)cc1 | inactive: -10.6% | – |
| O=C(O)CCCCCNc1nc(=S)[nH]c2ccccc12 | inactive: -0.907% | – |
| O=C(NCCc1ccco1)C(=O)NCC1OCCCN1S(=O)(=O)c1cc(F)ccc1F (stereo unspecified) | inactive: -13.1% | – |
| O=C(Nc1cccc(C(=O)O)c1)/C(=C\c1ccco1)NC(=O)c1ccccc1Cl | – | inconclusive: 79.4 µM [inhibitor, partial curve] |
| CCOC(=O)C1=C(O)/C(=C/c2ccc(-c3ccccc3C(=O)O)o2)SC1=Nc1ccc(C)cc1 | – | active: 79.4 µM |
| C[n+]1c2n(c3ccccc31)N=C(c1ccc(-c3ccccc3)cc1)CS2 | – | inconclusive: 79.4 µM [inhibitor, partial curve, poor fit] |
| COc1ccc(NC(=O)Cn2c(=O)oc3cc(S(=O)(=O)N4CCCCC4C)ccc32)cc1 (stereo unspecified) | inactive: 3.47% | – |
| CCOC(=O)c1[nH]cc(-c2ccccc2)c1N1CCOCC1 | – | active: 22.4 µM |
| C=CCCC1CN(Cc2ccco2)S(=O)(=O)c2c(F)cccc2O1 (stereo unspecified) | – | inconclusive: 89.1 µM [inhibitor, single point] |
| Cc1ccc(NC(=O)CNC(=O)N2CC(=O)Nc3ccccc32)cc1F | – | inconclusive: 35.5 µM [inhibitor, partial curve, poor fit] |
| COc1ccc(CCC(C)NC(=O)Cc2ccc(OC)c(OC)c2)c(OC)c1 (stereo unspecified) | – | inconclusive: 0.631 µM [inhibitor, full curve, poor fit] |
| COc1ccc(/C=C/C(=O)c2cc(F)ccc2OC(=O)c2ccccc2C)cc1OC | – | inconclusive: 3.16 µM [inhibitor, full curve] |
| COc1ccc(NS(=O)(=O)c2cc(N)ccc2N2CCCCC2)cc1 | inactive: -1.93% | – |
| CN(C)c1ncc2nc(CCc3ccccc3)c(=O)n(C3CC3)c2n1 | – | inconclusive: 50.1 µM [inhibitor, partial curve] |
| O=C(COC(=O)c1cccnc1Cl)c1ccc(OC(F)F)cc1 | – | inconclusive: 89.1 µM [inhibitor, partial curve, poor fit] |
| COc1cc(NC(=S)Nc2cccc(C)n2)cc(OC)c1OC | – | inconclusive: 63.1 µM [inhibitor, partial curve, poor fit] |

| Structure (SMILES) | max response, negative = inhibition | Potency |
| --- | --- | --- |
| CCOC(=O)c1sc(=S)n(-c2ccc3c(c2)OCO3)c1N | – | inconclusive: 79.4 µM [inhibitor, partial curve, poor fit] |
| O=C(/C=C/c1ccccc1O)c1ccco1 | – | inconclusive: 50.1 µM [inhibitor, partial curve, poor fit] |
| Cn1c(=O)c(-c2cccs2)nc2cnc(Oc3ccccc3)nc21 | – | inconclusive: 89.1 µM [inhibitor, single point] |
| O=C1/C(=C/c2ccc([N+](=O)[O-])cc2)C=C(c2ccccc2)N1c1ccc(O)cc1 | – | inconclusive: 70.8 µM [inhibitor, single point] |
| Cc1cccc(NC(=O)c2ccc(-n3cccn3)c([N+](=O)[O-])c2)c1 | inactive: 3.31% | – |
| c1ccc(Cc2nnc3sc(-c4cccs4)nn23)cc1 | – | inconclusive: 70.8 µM [inhibitor, partial curve, poor fit] |
| Clc1ccc(-c2cc3ccccc3nc2N2CCCC2)cc1 | inactive: 4.43% | – |
| O=C(Nc1ccc(C(=O)Nc2ccc(C(=O)Nc3ccc(S(=O)(=O)O)c4cc(S(=O)(=O)O)cc(S(=O)(=O)O)c34)cc2)cc1)Nc1ccc(C(=O)Nc2ccc(C(=O)Nc3ccc(S(=O)(=O)O)c4cc(S(=O)(=O)O)cc(S(=O)(=O)O)c34)cc2)cc1 | – | active: 25.1 µM and active: 5.62 µM |
| COc1cccc(NC(=O)NCc2ccccc2F)c1 | – | inconclusive: 14.1 µM [inhibitor, partial curve] |
| Oc1ccc(Cl)cc1C1=NNC(c2ccc(Cl)cc2)C1 (stereo unspecified) | – | inconclusive: 79.4 µM [inhibitor, partial curve] |
| CSc1ccc(C(=O)C2CCCN(C(=O)CN3CCOC3=O)C2)cc1 (stereo unspecified) | – | inconclusive: 70.8 µM [inhibitor, partial curve] |
| N#Cc1cc([N+](=O)[O-])c(-n2nnc3ccccc32)c([N+](=O)[O-])c1 | – | inconclusive: 89.1 µM [inhibitor, single point] |
| Cn1nc(C(=O)N2CCC(C(N)=O)CC2)c2c1-c1ccccc1SC2 | inactive: -0.815% | – |
| O=C(Nc1cc(S(=O)(=O)N2CCOCC2)ccc1N1CCCCC1)c1ccc(Cl)cc1 | – | inconclusive: 22.4 µM [inhibitor, full curve] |
| O=C(c1cccc(C(F)(F)F)c1)C1CCCN(Cc2cccn2-c2ncccn2)C1 (stereo unspecified) | inactive: 5.82% | – |
| Cc1ccc(CS(=O)(=O)c2ncc(Cl)c(C(=O)Nc3nc4ccc(C)cc4s3)n2)cc1 | – | inconclusive: 28.2 µM [inhibitor, single point] |
| O=c1c2ccccc2oc2cc(-c3ccc4cc[nH]c4c3)ccc12 | – | inconclusive: 89.1 µM [inhibitor, partial curve, poor fit] |
| N#CC(C#N)=C1C=CC=CN1/C(=C\c1ccccc1Cl)C(=O)c1ccccc1 | – | inconclusive: 56.2 µM [inhibitor, partial curve, poor fit] |
| CCOc1ccccc1NC(=O)CSc1nc2cc(OC)c(OC)cc2c2nc(-c3ccccc3)nn12 | – | inconclusive: 2.51 µM [inhibitor, full curve, poor fit] |
| COc1cccc(N2CCN(C(=O)CCCCCn3c(=S)[nH]c4cc5c(cc4c3=O)OCO5)CC2)c1 | inactive: -16.4% | – |
| O=C1N=C(N2CCCC2C(=O)O)S/C1=C\c1ccco1 (stereo unspecified) | – | inconclusive: 39.8 µM [inhibitor, single point] |
| Cc1ccc(N2N=C(c3ccc(F)cc3)CC2c2ccco2)cc1 (stereo unspecified) | – | inconclusive: 100 µM [inhibitor, single point] |

| Structure (SMILES) | max response, negative = inhibition | Potency |
| --- | --- | --- |
| COc1ccc(-c2cc(C(=O)N3CCCC(C(F)(F)F)C3)c3ccccc3n2)cc1 (stereo unspecified) | inactive: 6% | – |
| CC(C)N=C1NN=C(c2ccc(F)cc2)CS1 | – | inconclusive: 70.8 µM [inhibitor, partial curve] |
| Cc1c(Cl)cccc1Nc1nc(NCCO)c2ccccc2n1 | inactive: 4.56% | – |
| Cc1ccc(C(=O)OCC(=O)NC(=O)c2cccn2C)cc1[N+](=O)[O-] | – | inconclusive: 12.6 µM [inhibitor, partial curve, poor fit] |
| COc1ccc(Cl)cc1NC(=O)CN1CCN(Cc2ccccc2)CC1 | inactive: -11% | – |
| COc1ccc(OC)c(C(=O)NC(CC(N)=O)c2ccc(N3CCN(c4ccc(F)cc4)CC3)c([N+](=O)[O-])c2)c1 (stereo unspecified) | – | inconclusive: 89.1 µM [inhibitor, partial curve, poor fit] |
| COc1cc(C(=O)NS(=O)(=O)c2ccccc2C)ccc1Cc1cn(C)c2ccc(NC(=O)OC3CCCC3)cc12 | – | active: 50.1 µM |
| O=C(CSc1nnc(-c2cccnc2)n1Cc1ccco1)c1ccc2ccccc2c1 | inactive: -19.5% | – |
| CCCNC(=O)Cn1cnc2sc(C(=O)NCCCN3CCOCC3)c(C)c2c1=O | – | inconclusive: 7.08 µM [inhibitor, partial curve, poor fit] |
| O=c1c2ccccc2c2ccccc2c(=O)n1-c1ccccc1 | – | inconclusive: 63.1 µM [inhibitor, partial curve, poor fit] |
| CC(C)(N=NC(C)(C)C(=N)N)C(=N)N | – | inconclusive: 50.1 µM [inhibitor, partial curve] |
| CCCCCC(=O)Nc1ccc(-c2csc(N)n2)cc1 | – | inconclusive: 89.1 µM [inhibitor, single point] |
| CCOC(=O)c1c(NC(=O)COc2cc(C)ccc2C(C)C)sc(C)c1C | – | active: 39.8 µM |
| COCCn1c(SCC(=O)N2CCCCCC2)nnc1-c1ccco1 | inactive: 7.97% | – |
| Cc1cc(C)c2nc(NNC(=O)c3cc(=O)c4ccccc4o3)sc2c1 | – | active: 39.8 µM |
| Cc1ccc(CN2CCSc3ccc(C(=O)NCc4cccnc4)cc32)cc1 | inactive: -6.02% | – |
| CCC(CC)c1nnc(NC(=O)c2ccc3c(c2)OCO3)s1 | – | active: 79.4 µM |
| COc1ccc2[nH]cc(CCNc3cc(-c4ccoc4)ncn3)c2c1 | – | inconclusive: 50.1 µM [inhibitor, partial curve] |
| O=C(Nc1nc2ccccc2s1)c1ccc(F)cc1 | – | inconclusive: 50.1 µM [inhibitor, partial curve, poor fit] |
| CN1CCC(=NNC(=O)C(=O)NCc2ccccc2)CC1 | inactive: 0.102% | – |
| CCN(CC)C(=O)c1ccc(NS(=O)(=O)c2ccc(/C=C/C(=O)O)cc2)cc1 | – | inconclusive: 70.8 µM [inhibitor, partial curve, poor fit] |
| C=C1C(=O)[C@]23[C@H](O)[C@H]1CC[C@H]2[C@@]12COC3(O)[C@H](O)[C@@H]1C(C)(C)CC[C@@H]2O | – | active: 7.08 µM |

Six records drawn at random from the list so far:

| Structure (SMILES) | max response, negative = inhibition | Potency |
| --- | --- | --- |
| CCN(CC)C(=O)c1ccc(NS(=O)(=O)c2ccc(/C=C/C(=O)O)cc2)cc1 | – | inconclusive: 70.8 µM [inhibitor, partial curve, poor fit] |
| COCCn1c(SCC(=O)N2CCCCCC2)nnc1-c1ccco1 | inactive: 7.97% | – |
| COc1ccc(Cl)cc1NC(=O)CN1CCN(Cc2ccccc2)CC1 | inactive: -11% | – |
| O=C(Nc1nc2ccccc2s1)c1ccc(F)cc1 | – | inconclusive: 50.1 µM [inhibitor, partial curve, poor fit] |
| COc1ccc2[nH]cc(CCNc3cc(-c4ccoc4)ncn3)c2c1 | – | inconclusive: 50.1 µM [inhibitor, partial curve] |
| COc1cc(C(=O)NS(=O)(=O)c2ccccc2C)ccc1Cc1cn(C)c2ccc(NC(=O)OC3CCCC3)cc12 | – | active: 50.1 µM |
